Reference: publication PMC11789580
These are yes or no findings as the source states them, for the method shown. In cells and extracts the contact can be indirect. Some results given as binding are weak or reduced against the parent protein; the word gives no strength. Tags and fused reporters may be left off the sequences shown.

T1: RPOTp-nLUC (Arabidopsis) (UniProt O24600)
T1 sequence: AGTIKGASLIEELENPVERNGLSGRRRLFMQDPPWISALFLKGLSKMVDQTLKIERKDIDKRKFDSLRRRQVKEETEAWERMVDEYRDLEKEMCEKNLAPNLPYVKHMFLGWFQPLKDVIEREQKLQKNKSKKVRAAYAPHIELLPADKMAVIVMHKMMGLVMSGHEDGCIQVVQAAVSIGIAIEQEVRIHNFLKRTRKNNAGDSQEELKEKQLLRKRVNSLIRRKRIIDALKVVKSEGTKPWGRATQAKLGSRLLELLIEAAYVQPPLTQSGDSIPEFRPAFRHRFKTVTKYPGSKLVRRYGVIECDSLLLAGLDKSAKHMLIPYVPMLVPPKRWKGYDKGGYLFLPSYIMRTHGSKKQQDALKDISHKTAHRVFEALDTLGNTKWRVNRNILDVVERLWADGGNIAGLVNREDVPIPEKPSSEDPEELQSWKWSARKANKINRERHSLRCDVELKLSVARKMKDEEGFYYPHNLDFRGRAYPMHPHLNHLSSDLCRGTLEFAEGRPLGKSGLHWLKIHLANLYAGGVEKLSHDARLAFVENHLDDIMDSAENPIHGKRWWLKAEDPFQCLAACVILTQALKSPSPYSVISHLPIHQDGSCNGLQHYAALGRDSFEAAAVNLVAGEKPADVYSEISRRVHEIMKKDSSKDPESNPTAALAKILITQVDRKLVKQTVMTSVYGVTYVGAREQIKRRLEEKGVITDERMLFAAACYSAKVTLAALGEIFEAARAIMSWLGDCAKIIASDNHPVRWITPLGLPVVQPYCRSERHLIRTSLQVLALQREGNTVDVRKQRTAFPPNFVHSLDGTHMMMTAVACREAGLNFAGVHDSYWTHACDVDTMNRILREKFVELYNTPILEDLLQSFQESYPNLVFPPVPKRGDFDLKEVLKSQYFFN

B1: ORRM1-cLUC (protein, UniProt Q8L440 55-374)
chain: SSAISAPPSSTVLTRNSYWMVLLDKPPHWVSSKSAMVDYYVEILAKVLGNEKDAQVSIYDASFDTHFGFCCHIDEDASRQLASLPGVVSIRPEQDYSSEKKNYGIGSHKGVSLFDHGTVKHWMVRIDKPGVGIVTKAQMVDHCVQLLSKVLWNEKDAQMCLYHVSWQSDFGFCCDLDERSAVELAGVPGVLAVVPDNSFESLNKDYEGDSTQDSRDQDDSESPPVKTKKLFITGLSFYTSEKTLRAAFEGFGELVEVKIIMDKISKRSKGYAFLEYTTEEAAGTALKEMNGKIINGWMIVVDVAKTKPFRQNRSQPSFGL
B2: OTP84 (protein, UniProt Q7Y211 45-890)
chain: ASAVSGAPSIFISQSRSPEWWIDLLRSKVRSNLLREAVLTYVDMIVLGIKPDNYAFPALLKAVADLQDMELGKQIHAHVYKFGYGVDSVTVANTLVNLYRKCGDFGAVYKVFDRISERNQVSWNSLISSLCSFEKWEMALEAFRCMLDENVEPSSFTLVSVVTACSNLPMPEGLMMGKQVHAYGLRKGELNSFIINTLVAMYGKLGKLASSKVLLGSFGGRDLVTWNTVLSSLCQNEQLLEALEYLREMVLEGVEPDEFTISSVLPACSHLEMLRTGKELHAYALKNGSLDENSFVGSALVDMYCNCKQVLSGRRVFDGMFDRKIGLWNAMIAGYSQNEHDKEALLLFIGMEESAGLLANSTTMAGVVPACVRSGAFSRKEAIHGFVVKRGLDRDRFVQNTLMDMYSRLGKIDIAMRIFGKMEDRDLVTWNTMITGYVFSEHHEDALLLLHKMQNLERKVSKGASRVSLKPNSITLMTILPSCAALSALAKGKEIHAYAIKNNLATDVAVGSALVDMYAKCGCLQMSRKVFDQIPQKNVITWNVIIMAYGMHGNGQEAIDLLRMMMVQGVKPNEVTFISVFAACSHSGMVDEGLRIFYVMKPDYGVEPSSDHYACVVDLLGRAGRIKEAYQLMNMMPRDFNKAGAWSSLLGASRIHNNLEIGEIAAQNLIQLEPNVASHYVLLANIYSSAGLWDKATEVRRNMKEQGVRKEPGCSWIEHGDEVHKFVAGDSSHPQSEKLSGYLETLWERMRKEGYVPDTSCVLHNVEEDEKEILLCGHSEKLAIAFGILNTSPGTIIRVAKNLRVCNDCHLATKFISKIVDREIILRDVRRFHRFKNGTCSCGDYW
B3: CRR28 (protein, UniProt Q0WQW5 41-638)
chain: ASTAGNHHQRIFSLAETCSDMSQLKQLHAFTLRTTYPEEPATLFLYGKILQLSSSFSDVNYAFRVFDSIENHSSFMWNTLIRACAHDVSRKEEAFMLYRKMLERGESSPDKHTFPFVLKACAYIFGFSEGKQVHCQIVKHGFGGDVYVNNGLIHLYGSCGCLDLARKVFDEMPERSLVSWNSMIDALVRFGEYDSALQLFREMQRSFEPDGYTMQSVLSACAGLGSLSLGTWAHAFLLRKCDVDVAMDVLVKNSLIEMYCKCGSLRMAEQVFQGMQKRDLASWNAMILGFATHGRAEEAMNFFDRMVDKRENVRPNSVTFVGLLIACNHRGFVNKGRQYFDMMVRDYCIEPALEHYGCIVDLIARAGYITEAIDMVMSMPMKPDAVIWRSLLDACCKKGASVELSEEIARNIIGTKEDNESSNGNCSGAYVLLSRVYASASRWNDVGIVRKLMSEHGIRKEPGCSSIEINGISHEFFAGDTSHPQTKQIYQQLKVIDDRLRSIGYLPDRSQAPLVDATNDGSKEYSLRLHSERLAIAFGLINLPPQTPIRIFKNLRVCNDCHEVTKLISKVFNTEIIVRDRVRFHHFKDGSCSCLDYW
B4: DOT4 (protein, UniProt Q9SN39 29-871)
chain: SGVRVRKYVIFNRASLRTVSDCVDSITTFDRSVTDANTQLRRFCESGNLENAVKLLCVSGKWDIDPRTLCSVLQLCADSKSLKDGKEVDNFIRGNGFVIDSNLGSKLSLMYTNCGDLKEASRVFDEVKIEKALFWNILMNELAKSGDFSGSIGLFKKMMSSGVEMDSYTFSCVSKSFSSLRSVHGGEQLHGFILKSGFGERNSVGNSLVAFYLKNQRVDSARKVFDEMTERDVISWNSIINGYVSNGLAEKGLSVFVQMLVSGIEIDLATIVSVFAGCADSRLISLGRAVHSIGVKACFSREDRFCNTLLDMYSKCGDLDSAKAVFREMSDRSVVSYTSMIAGYAREGLAGEAVKLFEEMEEEGISPDVYTVTAVLNCCARYRLLDEGKRVHEWIKENDLGFDIFVSNALMDMYAKCGSMQEAELVFSEMRVKDIISWNTIIGGYSKNCYANEALSLFNLLLEEKRFSPDERTVACVLPACASLSAFDKGREIHGYIMRNGYFSDRHVANSLVDMYAKCGALLLAHMLFDDIASKDLVSWTVMIAGYGMHGFGKEAIALFNQMRQAGIEADEISFVSLLYACSHSGLVDEGWRFFNIMRHECKIEPTVEHYACIVDMLARTGDLIKAYRFIENMPIPPDATIWGALLCGCRIHHDVKLAEKVAEKVFELEPENTGYYVLMANIYAEAEKWEQVKRLRKRIGQRGLRKNPGCSWIEIKGRVNIFVAGDSSNPETENIEAFLRKVRARMIEEGYSPLTKYALIDAEEMEKEEALCGHSEKLAMALGIISSGHGKIIRVTKNLRVCGDCHEMAKFMSKLTRREIVLRDSNRFHQFKDGHCSCRGFW
B5: OTP81 (protein, UniProt O82380 43-738)
chain: LRQLKQTHGHMIRTGTFSDPYSASKLFAMAALSSFASLEYARKVFDEIPKPNSFAWNTLIRAYASGPDPVLSIWAFLDMVSESQCYPNKYTFPFLIKAAAEVSSLSLGQSLHGMAVKSAVGSDVFVANSLIHCYFSCGDLDSACKVFTTIKEKDVVSWNSMINGFVQKGSPDKALELFKKMESEDVKASHVTMVGVLSACAKIRNLEFGRQVCSYIEENRVNVNLTLANAMLDMYTKCGSIEDAKRLFDAMEEKDNVTWTTMLDGYAISEDYEAAREVLNSMPQKDIVAWNALISAYEQNGKPNEALIVFHELQLQKNMKLNQITLVSTLSACAQVGALELGRWIHSYIKKHGIRMNFHVTSALIHMYSKCGDLEKSREVFNSVEKRDVFVWSAMIGGLAMHGCGNEAVDMFYKMQEANVKPNGVTFTNVFCACSHTGLVDEAESLFHQMESNYGIVPEEKHYACIVDVLGRSGYLEKAVKFIEAMPIPPSTSVWGALLGACKIHANLNLAEMACTRLLELEPRNDGAHVLLSNIYAKLGKWENVSELRKHMRVTGLKKEPGCSSIEIDGMIHEFLSGDNAHPMSEKVYGKLHEVMEKLKSNGYEPEISQVLQIIEEEEMKEQSLNLHSEKLAICYGLISTEAPKVIRVIKNLRVCGDCHSVAKLISQLYDREIIVRDRYRFHHFRNGQCSCNDFW

Each binder was assayed against T1, RPOTp-nLUC (Arabidopsis) (assay: split reporter; firefly luciferase complementation imaging (LCI): nLUC and cLUC fusions co-infiltrated into 4-week-old Nicotiana benthamiana leaves, 3 days, 1 mM D-luciferin, CCD camera).
With B1 the binding was “binds”. With B2 the binding was “binds”. B3 was tested, and the binding was “no binding”. For B4, the binding was “no binding”. For B5, the binding was “no binding”.
